Reference: patent US20230094083A1 (YEDA RESEARCH AND DEVELOPMENT, published 2023)
These are yes or no findings as the source states them, for the method shown. Some entries that bind do so weakly or less than the wild type.

The chains behind the UniProt entries cited, without tags or fusion partners. Residues count along the entry.
UniProt P14625, residues 22-803: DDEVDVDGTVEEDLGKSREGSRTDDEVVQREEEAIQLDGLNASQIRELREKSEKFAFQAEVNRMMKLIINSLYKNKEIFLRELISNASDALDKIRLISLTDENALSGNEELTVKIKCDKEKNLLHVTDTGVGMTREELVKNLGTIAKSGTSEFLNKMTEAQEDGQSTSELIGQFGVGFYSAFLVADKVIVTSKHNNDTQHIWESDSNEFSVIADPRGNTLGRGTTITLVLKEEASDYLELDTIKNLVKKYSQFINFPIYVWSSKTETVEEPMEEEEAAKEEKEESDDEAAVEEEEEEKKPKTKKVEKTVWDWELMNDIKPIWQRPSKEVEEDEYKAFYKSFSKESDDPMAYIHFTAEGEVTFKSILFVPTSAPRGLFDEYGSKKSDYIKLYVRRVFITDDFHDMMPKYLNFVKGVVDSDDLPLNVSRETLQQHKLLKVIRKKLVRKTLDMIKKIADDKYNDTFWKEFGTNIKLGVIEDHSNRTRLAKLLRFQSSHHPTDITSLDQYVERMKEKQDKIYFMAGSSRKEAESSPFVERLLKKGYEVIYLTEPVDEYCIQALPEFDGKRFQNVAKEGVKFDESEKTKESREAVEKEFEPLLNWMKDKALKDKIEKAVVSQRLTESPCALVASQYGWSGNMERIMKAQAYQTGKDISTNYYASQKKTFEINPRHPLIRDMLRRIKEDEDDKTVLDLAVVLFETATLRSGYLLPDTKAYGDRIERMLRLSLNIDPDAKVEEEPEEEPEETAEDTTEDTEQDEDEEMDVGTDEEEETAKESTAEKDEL
UniProt P08113, residues 22-802: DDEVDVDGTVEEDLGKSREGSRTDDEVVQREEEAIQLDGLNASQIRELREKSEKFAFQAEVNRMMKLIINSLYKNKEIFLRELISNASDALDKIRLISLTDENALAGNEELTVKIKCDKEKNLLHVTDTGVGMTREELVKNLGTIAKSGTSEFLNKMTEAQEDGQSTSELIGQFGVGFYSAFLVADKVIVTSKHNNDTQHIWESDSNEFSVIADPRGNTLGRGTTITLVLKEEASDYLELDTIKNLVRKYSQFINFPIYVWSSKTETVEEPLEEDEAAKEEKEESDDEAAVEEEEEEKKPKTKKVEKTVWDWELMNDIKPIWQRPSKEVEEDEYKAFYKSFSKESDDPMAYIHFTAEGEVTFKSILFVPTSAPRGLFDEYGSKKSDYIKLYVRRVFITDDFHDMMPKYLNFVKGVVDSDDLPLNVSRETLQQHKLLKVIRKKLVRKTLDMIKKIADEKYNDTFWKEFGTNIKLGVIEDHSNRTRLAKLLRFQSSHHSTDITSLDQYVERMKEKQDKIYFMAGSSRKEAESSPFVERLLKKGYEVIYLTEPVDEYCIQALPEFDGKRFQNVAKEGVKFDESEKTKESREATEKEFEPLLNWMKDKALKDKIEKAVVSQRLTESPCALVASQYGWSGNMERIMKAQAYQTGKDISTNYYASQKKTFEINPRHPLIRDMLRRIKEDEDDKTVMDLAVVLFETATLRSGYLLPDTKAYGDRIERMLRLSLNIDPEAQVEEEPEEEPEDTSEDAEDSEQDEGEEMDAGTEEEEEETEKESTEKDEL

Experiments:
[1] = target: recombinant human Grp94 (Creative Biomart, USA) (human) (UniProt P14625); test: hybridoma screening; hybridoma screening for human Grp94 binding
[2] = target: recombinant human Grp94 (Creative Biomart, USA) (human) (UniProt P14625); test: Biacore T200 epitope binning on amine-coupled rhGrp94; Biacore T200 epitope binning
[3] = target: mouse Grp94 on the cell surface (Meth A sarcoma cells; senescent primary mouse lung fibroblasts) (mouse) (UniProt P08113); test: flow cytometry on Meth A sarcoma cells (FIG. 2)
[4] = target: recombinant human Grp94 (Creative Biomart, USA) (human) (UniProt P14625); test: Biacore T200 epitope binning on amine-coupled rhGrp94
[5] = target: mouse Grp94 on the cell surface (Meth A sarcoma cells; senescent primary mouse lung fibroblasts) (mouse) (UniProt P08113); test: flow cytometry on senescent and growing primary mouse fibroblasts
[6] = target: mouse Grp94 on the cell surface (Meth A sarcoma cells; senescent primary mouse lung fibroblasts) (mouse) (UniProt P08113); test: flow cytometry, hybridoma supernatant on senescent primary mouse fibroblasts
[7] = target: mouse Grp94 on the cell surface (Meth A sarcoma cells; senescent primary mouse lung fibroblasts) (mouse) (UniProt P08113); test: flow cytometry on senescent primary mouse fibroblasts, hybridoma supernatant; growing cells for comparison
[8] = target: mouse Grp94 on the cell surface (Meth A sarcoma cells; senescent primary mouse lung fibroblasts) (mouse) (UniProt P08113); test: flow cytometry on Meth A sarcoma cells, hybridoma supernatant neat and 1 in 2, AF647 goat anti-mouse IgG secondary
[9] = target: recombinant human Grp94 (Creative Biomart, USA) (human) (UniProt P14625); test: Biacore T200 single cycle kinetics, antibody captured on an anti-mouse surface, Grp94 as analyte at 11.1 to 100 nM
[10] = target: recombinant human Grp94 (Creative Biomart, USA) (human) (UniProt P14625); test: hybridoma screening

Measured: binding

B1: anti-Grp94 monoclonal antibody clone 9A3 (antibody, mouse IgG2a, V domains shown)
VH: EVKLVESGGGLVKPGGSLKLSCAASGFTFRTYAMSWVRQTPEKRLEWVATITTGGPTYYPDNVKGRFTISRDNDRNILDLQMNSLRSEDTATYYCLRGATTGDYWGQGTTLIVSS
VL: DIVMTQSHKFMFTSVGDRVSITCKASHDVSTAVAWYQQKPGQYPKLLIYWASNRYTGVPDRFTGSGSGMDFTFTISSVQAEDLAVYYCQQHSSTPYTFGGGTRLEIK
notes: Mouse hybridoma antibody, tested as hybridoma supernatant
binds: [1] | [2]

B2: anti-Grp94 monoclonal antibody clone 4C2 (antibody, V domains shown)
VH: EVQLVETGGGLVQPKGSLKLSCAASGFTFNTNAMNWVRQAPGKGLEWVARIRSKSNNYATYYADSVKDRFTISRDDSQSMLFLQMNNLKTEDTAMYYCVRDTLAWFAYWGQGTLVTVSA
VL: QIVLTQSPAIMSASPGEKVTITCSASSSVSYMHWFQQKPDTSPKLWIYSTSNLASGVPARFSASGSGTSYSLTISRMEAEDAATYYCQQKTSYPPTFGAGTKLELK
notes: Mouse hybridoma antibody; It was tested as hybridoma supernatant in the screens (ELISA, Meth A FACS, Biacore, binning); also called 4C2 clone hybridoma supernatant; monoclonal antibody 4C2
binds: [3] | [4] | [5] | [6] | [7] | [8] | [9]

B3: anti-Grp94 monoclonal antibody clone 20H2 (antibody, V domains shown)
VH: EVQLVETGGGLVQPQGSLKLSCAASGFTFNTNAMNWVRQAPGKGLEWVARIRSKSNNFVTYYADSVTDRFTISRDDSQSMLYLQMNSLKTGDTAMYYCVRDTATWFSYWGQGTLVTVSA
VL: QIVLTQSPAIMSASPGERVTITCSASSSVSFMHWFQQKPGTSPKLWIYSTSNLASGVPARFSGSGSGTSYSLTISRMEAEDAATYYCQQRTNYPPTFGSGTKLEIK
binds: [10] | [4]

B4: anti-Grp94 monoclonal antibody clone 5B2 (antibody, mouse IgG2a, V domains shown)
VH: EVQLVETGGGLVQPKGSLKLSCAASGFTFNTNAMNWVRQAPGKGLEWVARIRSKSNNYATYYADSVKDRFTISRDDSQNMFYLQMNNLKTEDTAMYYCVRDTATWFAYWGQGTLVTVSA
VL: QIVLTQSPALMSASPGEKVTIACSASSSVSYMHWFQQKPGTSPKLWIYSTSNLASGVPARFSGSGSGTSYSLTISRMEAEDAATYYCQQKTSYPPTFGSGTKLEIK
notes: as for B1
binds: [10] | [4] | [9]
